From PubChem BioAssay AID1508600 (Functional Genomics Laboratory (NCATS/FGL), 2020)
The whole screen tested about 53,000 sequences, of which about 3,700 (7%) were called active.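 The calls were made as follows: active = gene knockdowns whose robust z-score for IL-1 alpha signal is at least 2 or at most -2, so actives lie on both sides; inactive = the rest.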 The list shows a part of the results.

Assay: Components of the Cytosolic LPS Sensing Pathway: Gene Identification via Genome-wide siRNA Screen;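 also: robust z of the log signal after scaling to non-targeting control siRNA wells of the plate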
Details: RAW264.7 macrophages, IL-1a HTRF, actives lie on both sides, screened at 100 nM (by protocol), cells primed 5 h with Pam3CSK4 first
In short: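 Supernatant IL-1a by HTRF from RAW264.7 cells primed with Pam3CSK4 (5 hours) and transfected with LipidA (24 hour) after 48h siRNA knockdown at 100 nM; cell viability checked with CellTiter-Glo.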

Sequence | z-score
GGGCAUUGAUCACAGUGUATT against Bcl3 | inactive: -1.94
GGAUAUCUGAGACAGGUUUTT against Arf4 | inactive: -1.71
CCAUGAGUUCAGAUGAUGATT against Ints10 | inactive: -1.11
CCAUCACCGAAGCAUUAAATT against Lypd9 | inactive: -0.553
GGAGAAGCUCUUAAAGAAATT against Traf3ip3 | inactive: 0.959
GGUGCUUAUACUUCUUUGUTT against Sgcz | active: -2.42
CAACAUCUAAACCCAAGAGTT against 1700010D01Rik | inactive: -1.1
GAGAACAAGCCUAAGCCCATT against V1rb5 | inactive: 1.44
CCACAUAUUUAUCUCCCUGTT against Mrpl33 | inactive: 0.553
CCUGCUCUCCUCAUUAUGUTT against Rnls | inactive: -0.115
CCUUCAUUGUGAUUGACAUTT against Ptpn11 | inactive: -0.55
GGUCAUGCUGAUCAGCGACTT against Itfg2 | inactive: -0.564
GCUUCUAAGCCGAAGGCCATT against H1f3 | inactive: 0.274
GGACAGAUCUUUUUGGUUUTT against Olfr295 | inactive: -1.17
GGAAGAUGAGGACACCAUGTT against Eva1b | inactive: -1.83
CCGGCACUAUGAGAAGAAGTT against Lims2 | inactive: 0.919
GGAACUAACAUCACACCGATT against Ifnz | inactive: 0.811
GCUAUGUCAUAGUUCAGCCTT against Khdc3 | inactive: -0.154
GCCCAGUGAUUGGAAACGATT against Tbc1d2b | inactive: 0.123
GGAGAGAGAAUUUCACCUCTT against Dcaf12 | inactive: -0.572
GCUUUAAGGCUUACACAGATT against Klrk1 | inactive: 0.414
GCUCAAAAUAACAAGAAGGTT against Ercc5 | inactive: -0.201

Sequence | z-score
GGCUCUUAUUGCCCUAACCTT against Hypk | inactive: -1.92
GGUAUGAGUGAAGAAAAGATT against Ifi205 | inactive: -1.36
GCUCAUACUCCGAAACCUGTT against Etv1 | inactive: -0.0309
GCUUGUACCUGUGGAUCGATT against Wif1 | inactive: 0.827
GCAAGGGCUUUAACUAAGUTT against Wnt2 | inactive: 0.589
GGCUUUGGAAUAUACCGAGTT against Ttc23 | inactive: -0.0628
GGAAAAUUCUUCCAACAUCTT against Fsd1l | inactive: -0.249
GGACAUCUCCUCAAUCAUCTT against Gdf10 | inactive: -0.148
GGAGGAAGAAGAUGAGAUATT against Il4ra | inactive: -1.39
CCGCAUAUUUGGAAUACGATT against Mfsd1 | inactive: -0.512
CCCACUUGUCUACAGCCUATT against Olfr1505 | active: -2.65
GCAGUCUCCAAUUGAGAUUTT against Car13 | inactive: -0.0313
GGUGUAAGGUUGUUUGGUUTT against Adm | inactive: 0.427
CGAAGGUAGCCAGUCACAATT against Ppib | inactive: -0.518
GGAGAAGCUGCCUUUCAUGTT against Erich5 | inactive: 0.55
GGCAAUUAAAGAAGCCCUCTT against Cyp2c40 | inactive: 0.514
GGACAGAGCCUAGAAAACUTT against Mpdu1 | inactive: -1.15
CGUACAUGUACCAAAAUAUTT against Angpt1 | inactive: -0.293
GCGGAUGCUCAGUGAUGGGTT against Tcp10a | inactive: 0.131
GGCUGGUAAUUCACUUAAUTT against Kcnk2 | active: -2.54
GCGGCUUUACAAGGAUGACTT against Elob | active: 2
GGUGAAUGGCAUGACCAUATT against Asb9 | inactive: 0.49

Retrieved one by one from above:
Sequence | z-score
CCUGCUCUCCUCAUUAUGUTT against Rnls | inactive: -0.115
GCUUCUAAGCCGAAGGCCATT against H1f3 | inactive: 0.274
CAACAUCUAAACCCAAGAGTT against 1700010D01Rik | inactive: -1.1
GGACAGAUCUUUUUGGUUUTT against Olfr295 | inactive: -1.17
CCCACUUGUCUACAGCCUATT against Olfr1505 | active: -2.65

Remaining list, next part.

Sequence | z-score
CGAGAAAACACGGACCUCATT against Slc16a6 | inactive: -0.917
CCAACCAGACUUAUUUAAUTT against Zfp37 | inactive: 1.61
GGCCUCUUACAAAGUGAGATT against Supt7l | inactive: -0.265
GGAGGAUAUACACAACAGGTT against Tceal9 | inactive: 1.49
GGUUACCUCAGUUUAAAGATT against Gbf1 | inactive: 0.69
CCUCAAAGUGGAUCAACUGTT against D17H6S53E | inactive: 0.415
CCUAGUUUUGAACAUCAGATT against Il13ra1 | inactive: 0.157
GCGUAAGGAAUUGUCUAACTT against Hoxd12 | active: 4.05
GGCUUGACUGCUAUUUUAGTT against Csn1s1 | inactive: 0.711
CCGUAAUUUACCAAAGAGATT against Mcmbp | inactive: -0.0618
GGAGGUAAAAAGCAAGACATT against 4930548H24Rik | inactive: 1.9
CGAAAAUACGUCAAAGCUCTT against Abca8b | inactive: -0.656
GUCAUUGCACCAAAAAUGUTT against Olfr1052 | inactive: -1.87
GGAGGGUGUGUGCUAAUGATT against Hnf1b | inactive: 0.765
GGCUCAAAUACAGGAAAUUTT against Tmem45b | inactive: 0.498
GGCAGUCAUUACCUAUCAGTT against Atp7b | inactive: -0.271
CCGAAGUCAACUAAACUUATT against Rmc1 | inactive: 0.732
GGUUGUCUGCUAAACCUGCTT against Hmgn2 | inactive: -0.699
CGUGCGAGACAGCUUUUAATT against Gtf2h3 | inactive: 1.77
GGGAAAAUCCAGCCAUAGUTT against Ubqlnl | inactive: 0.559
GGAUGGUCACGGAAGUUCUTT against Lmf2 | active: 2.36
GGAAAACCCUGGUACUGAUTT against Mpp2 | inactive: -1.28

Sequence | z-score
GGGCUGUGAACACAAGUGUTT against Megf6 | active: 2.02
GGUGGGAAAUUCGUAGACUTT against Pdcd1 | inactive: -0.4
GGAAACCUGCAUCCUAUGATT against Olfr195 | inactive: -0.196
CGACAUUUGUGUUAACCAUTT against Gprc5c | inactive: -0.483
GGAGGUUUUACUCAAACAUTT against Sec14l2 | inactive: 1.35
GCUUGAUCAGGAUAUUUUUTT against Pwwp3b | inactive: -0.058
GCAAUAGUUUACUUGAAGATT against Rpgrip1l | inactive: -0.505
CCUGUUUUCUAUUAUUGCUTT against 9330175E14Rik | inactive: -1.53
GGUGAACAAAGGAAAGAAUTT against Trpv2 | inactive: -0.405
GCUUGUUCGAGCAAGCAAGTT against Ccnt1 | inactive: -0.582
GGAAAAGAGCUCGUCUCAGTT against Il15 | inactive: -1.45
GGUCAAUGAACAGCACCGGTT against Igfbp2 | inactive: 0.723
CCUUUCUCUAAGGAGUUAUTT against Zfp945 | inactive: 0.3
GGCCAUCAAAGAAACUAGCTT against Tas2r139 | inactive: 1.94
GGAGUUUCAAAGUGCGAGUTT against Rin1 | inactive: -0.298
GGUGUUGUAAAAUUCCUCATT against Ncoa7 | active: -2.08
GCACCUUAAAAAUGAAGAUTT against Esyt2 | inactive: -0.423
GGCCGUUAUUAAAUUCAUATT against Twsg1 | inactive: -0.609
GCAUUGGGCAAAUGUCUGGTT against Olfr933 | inactive: 0.2
AUAGUGGAACCCUUUGUACTT against Olfr1195 | inactive: -0.832
GGAAUACGACAGAACUCCATT against Extl1 | inactive: 0.218
GGGAACACAAAACCAUUUCTT against Olfr1299 | inactive: 0.183

Looked up above.
GCACCUUAAAAAUGAAGAUTT against Esyt2 | z-score: inactive: -0.423
GGAAACCUGCAUCCUAUGATT against Olfr195 | z-score: inactive: -0.196
GGUGAACAAAGGAAAGAAUTT against Trpv2 | z-score: inactive: -0.405

(cont.)

Sequence | z-score
GGCUCAAAUUCGAAAACACTT against Zfp235 | inactive: 0.675
GGGUGAUAGCUCCUAUGUGTT against Nalcn | inactive: -1.07
GCUUAGCCAUCAAUGAGGATT against Cog6 | inactive: 0.251
CCAUUAAAAACCCAGAGGATT against Lyve1 | inactive: 0.0705
CCGAGGACUACAAGGUAUATT against Trappc2l | inactive: -1.61
GGCUGGAGAGGAAAUGAAUTT against Mrpl51 | inactive: 0.185
GGUGGUUCGCACAGAAAGUTT against Slc25a38 | inactive: -1.47
GCAGAGUCACCUUACUAACTT against Fam122b | inactive: -0.0407
GGAACUAUAUACGAUGAUGTT against Usp8 | inactive: -0.316
GGAGAACAAAGAUUUCGUGTT against Lhfpl4 | inactive: -0.897
GGGAGCAUUGGCCAGAGUUTT against Olfr20 | inactive: 0.877
GGUGAUUCGAAAGAACCUGTT against Sh3pxd2a | inactive: -0.771
GCUCUGUCGUGAAGAAUGCTT against F11 | inactive: 0.535
GGAACUUUUCAUCCUGAAGTT against Fgl1 | inactive: 0.0919
GCCCAUUGACGUAAUUCUCTT against Vmn1r198 | inactive: -1.24
GGCCCUAAACAAGUUAUCUTT against BB014433 | inactive: -0.544
GGUGGUCCAGAAUUUUGCATT against Cotl1 | inactive: 0.386
GGAAGACUUCGUGUUGACATT against Proz | inactive: 0.223
CCAGUAUCUAAUUGGAAUATT against Paqr8 | active: 2.07
